Laboratory results as given in PMC11997035.
Results are given in words; binding and its absence hold for the method and conditions named. In cells and extracts the contact can be indirect. Some entries that bind do so weakly or less than the wild type.

Protein sequences, listed by entry. Tags and fused reporters are not part of them.
UniProt Q15836: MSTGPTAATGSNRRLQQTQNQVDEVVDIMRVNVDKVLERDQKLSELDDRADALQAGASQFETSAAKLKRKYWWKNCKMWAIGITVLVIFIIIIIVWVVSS
UniProt P61006: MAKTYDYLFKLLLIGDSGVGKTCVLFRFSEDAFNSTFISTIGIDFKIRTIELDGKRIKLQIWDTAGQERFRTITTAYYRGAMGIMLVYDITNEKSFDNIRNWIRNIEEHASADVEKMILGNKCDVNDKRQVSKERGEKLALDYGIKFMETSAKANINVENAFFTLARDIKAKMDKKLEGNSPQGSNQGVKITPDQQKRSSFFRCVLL

How the values were obtained:
[1] = molecular target: T1, CD73 (bait for binding partners in TNBC cells) (human) (UniProt P21589); test: co-IP; co-immunoprecipitation of CD73 with vesicle-associated proteins (Supplementary Fig. 8a-c)
T1 sequence: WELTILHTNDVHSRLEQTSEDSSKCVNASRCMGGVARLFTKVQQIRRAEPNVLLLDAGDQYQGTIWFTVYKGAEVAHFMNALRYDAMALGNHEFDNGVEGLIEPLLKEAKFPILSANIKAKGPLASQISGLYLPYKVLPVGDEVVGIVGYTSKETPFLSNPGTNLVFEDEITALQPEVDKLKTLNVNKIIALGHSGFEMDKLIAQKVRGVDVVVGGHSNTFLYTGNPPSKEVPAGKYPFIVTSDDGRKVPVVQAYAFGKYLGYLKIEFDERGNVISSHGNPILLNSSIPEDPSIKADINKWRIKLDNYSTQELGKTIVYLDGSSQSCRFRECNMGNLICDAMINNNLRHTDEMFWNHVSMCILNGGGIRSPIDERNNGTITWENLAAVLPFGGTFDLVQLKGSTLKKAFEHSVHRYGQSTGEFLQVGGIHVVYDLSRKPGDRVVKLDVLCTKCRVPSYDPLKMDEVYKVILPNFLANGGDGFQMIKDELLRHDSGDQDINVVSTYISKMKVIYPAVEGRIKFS

[2] = molecular target: T1, CD73 (bait for binding partners in TNBC cells) (human); test: proximity ligation; proximity ligation assay of CD73 with vesicle-associated proteins (Supplementary Fig. 8a-c)
MGAT1 220–445 (human) = molecular target: T2, MGAT1 220–445 (human) (UniProt P26572); test: co-IP; Flag/HA-tagged truncation and deletion constructs of MGAT1 or CD73 co-transfected with the partner into HEK-293T cells; immunoblot
T2 sequence: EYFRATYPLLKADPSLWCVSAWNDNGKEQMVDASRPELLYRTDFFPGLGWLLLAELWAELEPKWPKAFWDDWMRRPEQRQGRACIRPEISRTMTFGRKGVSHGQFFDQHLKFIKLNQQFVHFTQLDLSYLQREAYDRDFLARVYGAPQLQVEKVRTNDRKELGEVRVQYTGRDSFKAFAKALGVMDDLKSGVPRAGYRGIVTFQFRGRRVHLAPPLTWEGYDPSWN

VAMP3 (from UniProt Q15836 1-100)
binding [1]: binds
binding [2]: binds

RAB8A (from UniProt P61006 1-207)
binding [1]: binds
binding [2]: binds

B1: RAB13 (protein, UniProt P51153 1-203)
chain: MAKAYDHLFKLLLIGDSGVGKTCLIIRFAEDNFNNTYISTIGIDFKIRTVDIEGKKIKLQVWDTAGQERFKTITTAYYRGAMGIILVYDITDEKSFENIQNWMKSIKENASAGVERLLLGNKCDMEAKRKVQKEQADKLAREHGIRFFETSAKSSMNVDEAFSSLARDILLKSGGRRSGNGNKPPSTDLKTCDKKNTNKCSLG
binding [1]: binds
binding [2]: binds

B2: CD73 (co-transfected with MGAT1 fragments) (enzyme, UniProt P21589 27-549)
chain: T1 sequence
binding (MGAT1 220–445 (human)): binds
